3 molecules from publication PMC10436584 can be followed below.

By UniProt entry, the sequences of proteins in these tests, tags left out. Residues count along the entry.
UniProt P30561, residues 10-848: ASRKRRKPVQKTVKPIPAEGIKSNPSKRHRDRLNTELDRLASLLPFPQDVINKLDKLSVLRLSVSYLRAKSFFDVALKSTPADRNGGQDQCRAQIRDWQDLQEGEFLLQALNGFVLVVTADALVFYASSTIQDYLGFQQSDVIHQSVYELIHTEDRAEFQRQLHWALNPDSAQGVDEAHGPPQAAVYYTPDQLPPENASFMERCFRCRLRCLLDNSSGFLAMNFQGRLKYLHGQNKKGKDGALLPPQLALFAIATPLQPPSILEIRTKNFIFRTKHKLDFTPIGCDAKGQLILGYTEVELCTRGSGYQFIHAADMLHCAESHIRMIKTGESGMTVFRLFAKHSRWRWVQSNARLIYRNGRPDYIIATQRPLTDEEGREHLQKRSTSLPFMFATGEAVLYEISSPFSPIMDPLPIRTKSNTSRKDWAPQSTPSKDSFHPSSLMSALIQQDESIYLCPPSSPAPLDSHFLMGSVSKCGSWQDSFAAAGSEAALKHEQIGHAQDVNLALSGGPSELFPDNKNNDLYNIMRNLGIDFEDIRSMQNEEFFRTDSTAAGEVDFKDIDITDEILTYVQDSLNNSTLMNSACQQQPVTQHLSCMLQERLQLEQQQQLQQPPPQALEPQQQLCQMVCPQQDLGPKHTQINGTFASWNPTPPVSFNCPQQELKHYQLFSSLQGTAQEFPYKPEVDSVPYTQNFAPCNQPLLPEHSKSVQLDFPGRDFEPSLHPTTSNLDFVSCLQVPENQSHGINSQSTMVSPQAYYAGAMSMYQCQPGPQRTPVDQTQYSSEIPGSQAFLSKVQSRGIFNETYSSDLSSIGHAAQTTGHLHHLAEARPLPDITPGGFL
UniProt P53762: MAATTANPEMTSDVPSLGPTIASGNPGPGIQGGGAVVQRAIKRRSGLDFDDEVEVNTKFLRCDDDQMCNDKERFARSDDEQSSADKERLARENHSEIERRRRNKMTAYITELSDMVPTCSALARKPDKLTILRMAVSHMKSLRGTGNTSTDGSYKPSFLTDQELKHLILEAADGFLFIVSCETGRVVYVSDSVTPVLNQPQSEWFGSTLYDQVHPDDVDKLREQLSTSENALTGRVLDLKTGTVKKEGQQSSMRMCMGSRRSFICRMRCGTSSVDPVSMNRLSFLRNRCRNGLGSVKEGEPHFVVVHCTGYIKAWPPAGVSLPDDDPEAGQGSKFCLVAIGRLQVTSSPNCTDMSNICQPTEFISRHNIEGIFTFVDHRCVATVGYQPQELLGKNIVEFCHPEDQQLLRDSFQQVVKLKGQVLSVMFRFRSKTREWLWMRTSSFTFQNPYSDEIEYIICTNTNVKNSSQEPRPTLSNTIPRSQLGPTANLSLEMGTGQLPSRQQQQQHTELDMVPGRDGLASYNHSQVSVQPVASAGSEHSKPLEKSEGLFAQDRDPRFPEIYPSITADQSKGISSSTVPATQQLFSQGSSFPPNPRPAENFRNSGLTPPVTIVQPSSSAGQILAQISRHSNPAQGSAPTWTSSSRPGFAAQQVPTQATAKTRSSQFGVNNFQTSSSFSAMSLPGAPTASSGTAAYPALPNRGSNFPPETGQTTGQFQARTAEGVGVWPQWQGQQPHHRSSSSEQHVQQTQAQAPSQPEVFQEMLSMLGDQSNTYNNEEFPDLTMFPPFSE

Read-outs that look alike come from different tables or passages of the source. No constants are given. Whether binding was seen depends on the method and setting. Binding seen in cells or lysates may run through a third protein. Some binding calls cover weakened binding; strength is not graded here.

The target of assay [1] is aryl hydrocarbon receptor (mouse (endogenous in MEFs)) (UniProt P30561). The assay is described as follows: co-IP; endogenous proteins; nuclear fraction of WT and Jdp2-/- MEFs treated with DMSO or TCDD for 2, 6 or 24 h; 300 ug extract, 1 ug IP antibody or preimmune IgG at 4 °C overnight, protein G beads, Western blot. On the technique in general: A western blot detects proteins with antibodies after separation by electrophoresis.

The target of assay [2] is T1, Jun dimerization protein 2 (mouse (endogenous in MEFs)) (UniProt P97875).
T1 sequence: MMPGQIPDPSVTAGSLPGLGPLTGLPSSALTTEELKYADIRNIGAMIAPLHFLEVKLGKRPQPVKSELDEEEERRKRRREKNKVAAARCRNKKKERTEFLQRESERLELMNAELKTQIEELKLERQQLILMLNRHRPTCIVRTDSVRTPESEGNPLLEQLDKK
Described as above.

Assay [3] addresses aryl hydrocarbon receptor (mouse (endogenous in MEFs)) (UniProt P30561). The assay is described as follows: co-IP; endogenous proteins; cytoplasmic fraction of DMSO- and TCDD-treated MEFs; IP with antibody to the AhR, Western blot.
For assay [4] the target is unchanged. The assay is described as follows: co-IP; endogenous proteins; nuclear fraction of WT and Jdp2-/- MEFs treated with DMSO or TCDD for 2, 6 or 24 h; 300 ug extract, 1 ug IP antibody or preimmune IgG at 4 °C overnight, protein G beads, Western blot. The source holds these as a separate data set.
In assay [5] the target is T1, Jun dimerization protein 2 (mouse (endogenous in MEFs)). The assay is described as above. The source holds these as a separate data set.
Assay [6] addresses aryl hydrocarbon receptor (mouse (endogenous in MEFs)) (UniProt P30561). The assay is described as follows: co-IP; endogenous proteins; Jdp2-/- MEFs after 6 and 24 h of TCDD; IP with antibody to the AhR, Western blot.

“AhR nuclear translocator (from UniProt P53762 1-791)”: the binding entry in assay [1] is listed as “binds”.

Regarding “aryl hydrocarbon receptor (from UniProt P30561 10-848)”, the binding entry in assay [2] was “binds”.

B1: nuclear factor (erythroid-derived 2)-like 2 (protein, UniProt Q60795 1-597)
chain: MMDLELPPPGLQSQQDMDLIDILWRQDIDLGVSREVFDFSQRQKDYELEKQKKLEKERQEQLQKEQEKAFFAQFQLDEETGEFLPIQPAQHIQTDTSGSASYSQVAHIPKQDALYFEDCMQLLAETFPFVDDHESLALDIPSHAESSVFTAPHQAQSLNSSLEAAMTDLSSIEQDMEQVWQELFSIPELQCLNTENKQLADTTAVPSPEATLTEMDSNYHFYSSISSLEKEVGNCGPHFLHGFEDSFSSILSTDDASQLTSLDSNPTLNTDFGDEFYSAFIAEPSDGGSMPSSAAISQSLSELLDGTIEGCDLSLCKAFNPKHAEGTMEFNDSDSGISLNTSPSRASPEHSVESSIYGDPPPGFSDSEMEELDSAPGSVKQNGPKAQPAHSPGDTVQPLSPAQGHSAPMRESQCENTTKKEVPVSPGHQKAPFTKDKHSSRLEAHLTRDELRAKALHIPFPVEKIINLPVDDFNEMMSKEQFNEAQLALIRDIRRRGKNKVAAQNCRKRKLENIVELEQDLGHLKDEREKLLREKGENDRNLHLLKRRLSTLYLEVFSMLRDEDGKPYSPSEYSLQQTRDGNVFLVPKSKKPDTKKN
With B1, the binding entry in assay [3] was “no binding (condition: cytoplasmic fraction)”; in assay [4] it was “binds”; in assay [5], “binds”; in assay [6], “no binding (condition: Jdp2-/- MEFs, 6 and 24 h of TCDD)”.
